Results on 2 substances are retold here after publication PMC12048902.

The chains behind the UniProt entries cited, without tags or fusion partners.
UniProt Q14449: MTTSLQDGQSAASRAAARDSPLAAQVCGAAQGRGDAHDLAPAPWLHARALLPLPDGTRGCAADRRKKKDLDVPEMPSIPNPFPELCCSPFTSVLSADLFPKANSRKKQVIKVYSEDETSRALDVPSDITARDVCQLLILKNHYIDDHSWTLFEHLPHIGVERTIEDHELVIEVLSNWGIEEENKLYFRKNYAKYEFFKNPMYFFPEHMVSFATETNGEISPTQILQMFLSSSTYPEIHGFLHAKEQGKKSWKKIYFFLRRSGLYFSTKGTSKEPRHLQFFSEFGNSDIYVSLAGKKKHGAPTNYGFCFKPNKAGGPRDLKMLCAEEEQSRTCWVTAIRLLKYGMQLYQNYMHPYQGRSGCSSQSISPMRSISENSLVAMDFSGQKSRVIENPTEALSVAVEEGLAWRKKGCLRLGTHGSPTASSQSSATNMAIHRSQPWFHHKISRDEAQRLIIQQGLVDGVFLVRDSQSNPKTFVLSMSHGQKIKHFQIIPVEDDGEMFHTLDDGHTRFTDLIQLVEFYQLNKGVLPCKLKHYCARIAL
UniProt Q53SF7: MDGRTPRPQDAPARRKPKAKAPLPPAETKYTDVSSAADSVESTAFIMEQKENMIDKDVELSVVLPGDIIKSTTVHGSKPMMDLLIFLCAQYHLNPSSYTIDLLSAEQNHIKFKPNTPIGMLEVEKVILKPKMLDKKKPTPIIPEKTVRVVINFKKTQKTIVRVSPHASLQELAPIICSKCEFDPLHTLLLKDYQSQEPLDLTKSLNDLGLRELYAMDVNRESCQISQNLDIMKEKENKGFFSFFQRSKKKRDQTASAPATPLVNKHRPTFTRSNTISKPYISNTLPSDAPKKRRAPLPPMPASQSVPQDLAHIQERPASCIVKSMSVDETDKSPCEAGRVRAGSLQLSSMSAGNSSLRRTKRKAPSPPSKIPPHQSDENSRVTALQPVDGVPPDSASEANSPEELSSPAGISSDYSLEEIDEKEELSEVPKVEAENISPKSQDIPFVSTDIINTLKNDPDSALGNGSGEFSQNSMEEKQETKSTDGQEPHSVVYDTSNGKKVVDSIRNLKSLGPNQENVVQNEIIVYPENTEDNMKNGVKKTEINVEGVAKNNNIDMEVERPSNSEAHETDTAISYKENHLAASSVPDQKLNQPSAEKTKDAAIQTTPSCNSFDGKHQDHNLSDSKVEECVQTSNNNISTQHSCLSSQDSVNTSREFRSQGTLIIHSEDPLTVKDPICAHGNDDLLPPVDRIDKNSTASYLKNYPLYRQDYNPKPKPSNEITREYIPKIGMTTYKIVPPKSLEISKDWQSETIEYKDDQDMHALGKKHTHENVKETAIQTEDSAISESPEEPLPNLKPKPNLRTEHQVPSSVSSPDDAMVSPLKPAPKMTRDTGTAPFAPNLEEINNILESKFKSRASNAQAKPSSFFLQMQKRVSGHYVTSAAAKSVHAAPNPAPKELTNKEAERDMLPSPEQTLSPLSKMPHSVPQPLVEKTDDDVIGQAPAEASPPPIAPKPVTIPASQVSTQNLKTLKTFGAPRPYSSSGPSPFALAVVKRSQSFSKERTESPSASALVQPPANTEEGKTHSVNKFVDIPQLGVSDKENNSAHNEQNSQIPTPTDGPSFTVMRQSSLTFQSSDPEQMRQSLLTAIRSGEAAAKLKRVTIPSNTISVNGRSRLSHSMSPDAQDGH

The target in assay [1] is Growth factor receptor-bound protein 14 (GRB14), endogenous in BGC-823 cells (human (endogenous in BGC-823)) (UniProt Q14449). As to the kind of experiment: co-IP; endogenous Co-IP in BGC-823 cells; bait and antibodies not told.
For assay [2], the target named is Growth factor receptor-bound protein 14 (GRB14), exogenously expressed (human) (UniProt Q14449). As to the kind of experiment: co-IP; exogenous Co-IP; GRB14 and COBLL1 exogenously expressed in HEK293T cells transfected with the specified constructs; bait and antibodies not told.

No constants are given. Whether binding was seen depends on the method and setting. In cells and extracts the contact can be indirect. Some entries that bind do so weakly or less than the wild type.

In the case of “Cordon-bleu WH2 repeat protein like 1 (COBLL1), endogenous in BGC-823 cells (from UniProt Q53SF7 1-1128)”, in assay [1], the binding result was “binds”.
Take “Cordon-bleu WH2 repeat protein like 1 (COBLL1), exogenously expressed (from UniProt Q53SF7 1-1128)”: the binding result in assay [2] is “binds”.
